Measured values reported in PubChem BioAssay AID540276 (National Center for Advancing Translational Sciences (NCATS), 2011).
Among all 300,000 compounds or so, about 5,400 (1.8%) were called active. Inconclusive results, whose numbers are uncertain, are shown with a selection of clear calls. The call rests on the fitted dose curve; tested in HEK293 cells. Where the call is inconclusive, the potency comes from a doubtful curve fit.
On the % scale 0 is the no-effect control and ±100 the full control effect; potency means the concentration at half of the fitted maximal effect.

Assay: qHTS for inhibitors of binding or entry into cells for Marburg Virus
Conditions: Marburg virus pseudotyped entry inhibition, cell reporter; activity change, negative = inhibition: at 37.8 µM (top of the series) unless noted
In the case of `O=C(Nc1cccc(F)c1)c1coc(=O)c(Br)c1`, the Potency is reported as inconclusive: 4.47 µM [inhibitor, partial curve, poor fit]. In the case of `Clc1ccc(Nc2ccc(NCc3ccccc3)nn2)cc1`, the “activity change, negative = inhibition” value is reported as inactive: 5.79%. For `CCn1cc([N+](=O)[O-])c(C(=O)N2N=C3/C(=C/c4cccs4)CCCC3C2c2cccs2)n1` (configuration not stated), the “activity change, negative = inhibition” value was inactive: -27.7%. With `CC1CCC(NC(=O)CN2C(=O)c3cccnc3Oc3ccc(Cl)cc32)CC1` (configuration not stated) the Potency was inconclusive: 5.62 µM [activator, single point]. In the case of `COc1ccc(-c2cc3ccccc3n2CC(O)CNC(CO)(CO)CO)cc1` (configuration not stated), the Potency is reported as inconclusive: 20.6 µM [inhibitor, partial curve]. For `Cc1c(CC(=O)NCc2ccccc2)c(=O)oc2c(C)c(O)ccc12`, the Potency was inconclusive: 6.31 µM [activator, single point]. For `COc1ccc2cnn(-c3ccc(OC(F)(F)Cl)cc3)c(=O)c2c1OC`, the Potency was inconclusive: 1 µM [activator, partial curve, poor fit]. With `O=C(c1ccc([N+](=O)[O-])o1)N1CCOCC1` the “activity change, negative = inhibition” value was inactive: 0.429% [at 46.1 µM]. In the case of `COc1cc(NC(=O)CN2c3cccc4cccc(c34)S2(=O)=O)cc(OC)c1OC`, the Potency is reported as inconclusive: 35.5 µM [inhibitor, single point]. With `COc1ccc(C(=O)O)cc1S(=O)(=O)NC1CCN(Cc2ccccc2)CC1` the “activity change, negative = inhibition” value was inactive: -1.19%. For `Cc1cccc(N2CCN(C(=O)c3ccc4c(c3)N(Cc3ccccc3F)C(=O)c3ccccc3S4=O)CC2C)c1` (configuration not stated), the Potency was active: 12.6 µM. For `Cc1ccc(CC(=O)N2CCN(c3ccc([N+](=O)[O-])cc3)CC2)cc1`, the Potency was inconclusive: 35.5 µM [inhibitor, single point]. With `CCCCC(=O)NC(c1ccccc1)c1ccc2cccnc2c1O` (configuration not stated) the Potency was inconclusive: 5.01 µM [inhibitor, full curve, poor fit]. With `CCCCC(CC)CNC(=O)CCCc1nnc2n(CCC)c(=O)c3sccc3n12` (configuration not stated) the Potency was inconclusive: 1.41 µM [inhibitor, partial curve, poor fit]. With `COc1ccc(-c2ccc(CCC(=O)O)n2CC2CCCO2)cc1` (configuration not stated) the Potency was inconclusive: 35.5 µM [inhibitor, partial curve, poor fit]. In the case of `CCOC(=O)C1=C(O)c2ccccc2C(=O)/C1=C\c1ccc(C)cc1`, the Potency is reported as inconclusive: 7.94 µM [inhibitor, partial curve, poor fit]. With `Cc1nnc(NC(=O)CS(=O)(=O)Cc2ccccc2)s1` the Potency was inconclusive: 6.31 µM [activator, single point]. In the case of `Cc1c(O)nc(SCC(=O)Nc2ccc3c4c(cccc24)CC3)n(-c2ccc(F)cc2)c1=O`, the “activity change, negative = inhibition” value is reported as inactive: 8.38%. For `CCOC(=O)Cn1ncc(-c2ccccc2)c1N`, the “activity change, negative = inhibition” value was inactive: 21.4%. In the case of `Cc1cccc(OCc2nc(C#N)c(NCc3ccccc3Cl)o2)c1`, the “activity change, negative = inhibition” value is reported as inactive: -29.4% [at 46.1 µM]. With `O=C(Cn1nnc(-c2ccc(F)cc2)n1)N1CCCCC1` the “activity change, negative = inhibition” value was inactive: -1.08% [at 46.1 µM]. In the case of `COc1ccc(C2CCCN2C(=S)Nc2c(C)cccc2C)cc1OC` (configuration not stated), the Potency is reported as inconclusive: 3.98 µM [inhibitor, single point]. With `CCCCN1CCc2[nH]c(=S)[nH]c(=O)c2C1` the Potency was inconclusive: 35.5 µM [activator, single point]. With `Cc1nn(-c2ccccc2)c(N2CCCC2)c1/C=N/NC(=S)Nc1ccc(F)cc1` the Potency was inconclusive: 1.41 µM [inhibitor, partial curve, poor fit]. In the case of `Clc1ccc(-c2csc(=Nc3ccccc3)n2Cc2ccc3c(c2)OCO3)cc1`, the Potency is reported as inconclusive: 11.2 µM [activator, partial curve, poor fit]. With `CCCCCNc1nc2sc3c(c2c(=O)n1-c1cccc(Cl)c1)CCN(C)C3` the Potency was inconclusive: 22.4 µM [inhibitor, partial curve, poor fit]. With `CCN(CC)S(=O)(=O)c1ccc(C(O)=C(C#N)c2nc3ccccc3n2C)cc1` the Potency was inconclusive: 0.562 µM [activator, full curve, poor fit]. For `CCCCNC(=O)c1ccc(NS(=O)(=O)c2ccccc2)cc1`, the Potency was inconclusive: 1.12 µM [activator, partial curve, poor fit]. In the case of `COc1ccc(-c2[nH]n(-c3ccc([N+](=O)[O-])cc3)c(=O)c2C=NCc2ccc(F)cc2)cc1`, the Potency is reported as inconclusive: 15.8 µM [activator, partial curve, poor fit]. For `Cc1ccc2cc(CN(C(=O)c3cccnc3)C(C)C)c(=O)[nH]c2c1`, the Potency was inconclusive: 0.0058 µM [inhibitor, full curve, poor fit]. For `CCCCSc1nnc2n(-c3cccc(C)c3)c(=O)c3c4c(sc3n12)CCCC4`, the “activity change, negative = inhibition” value was inactive: -6.63% [at 46.1 µM]. For `COc1ccc(Br)cc1CN(C)C(C)C(=O)Nc1cc([N+](=O)[O-])ccc1OC` (configuration not stated), the Potency was active: 14.1 µM. With `N#Cc1c(NCCO)nc(NCc2ccccc2)c2c1CCN(Cc1ccccc1)C2` the Potency was inconclusive: 25.1 µM [inhibitor, single point]. For `COc1cc(OC)cc(C(=O)Nc2cccc(NC(=O)c3ccccc3)c2)c1`, the Potency was inconclusive: 11.2 µM [inhibitor, partial curve, poor fit]. In the case of `COCCn1c(=N)c(C(=O)NCc2ccco2)cc2c(=O)n3ccccc3nc21`, the Potency is reported as inconclusive: 22.4 µM [inhibitor, single point]. With `CCOC(=O)N1CCC(NC(=O)c2ccc3c(c2)N(Cc2cccc(C)c2)C(=O)c2ccccc2S3(=O)=O)CC1` the Potency was inconclusive: 35.5 µM [inhibitor, single point]. With `COc1ccc2cc(C(=O)/C=C/c3cc(OC)c(O)c(OC)c3)ccc2c1` the Potency was inconclusive: 2.82 µM [inhibitor, full curve, poor fit]. For `CC(C)(C)NC(=O)/C=N\O`, the activity change, negative = inhibition was inconclusive: 23.8% [activator]. With `COc1ccc2c(c1)c(CC(=O)N1CCOCC1)c(C)n2C(=O)c1ccc(Cl)cc1` the Potency was inconclusive: 25.1 µM [inhibitor, partial curve]. With `CCC(=O)N1CCN(c2ccccc2NC(=O)c2ccc(-c3cccc([N+](=O)[O-])c3)o2)CC1` the Potency was inconclusive: 3.55 µM [inhibitor, single point]. With `O=C(O)c1cc(N/N=C/C=C/c2ccccc2)ccc1Cl` the Potency was inconclusive: 15.8 µM [inhibitor, partial curve, poor fit]. For `Cc1cccc(C)c1NC(=O)C(=O)c1cn(C)c2ccccc12`, the Potency was inconclusive: 0.562 µM [inhibitor, full curve, poor fit]. For `CC(C)(C)Nc1nc(Cl)nc(N(C#N)CN2C(=O)c3ccccc3S2(=O)=O)n1`, the Potency was inconclusive: 6.31 µM [inhibitor, partial curve, poor fit]. For `COc1ccc(S(=O)(=O)NCc2cccnc2)cc1NC(=O)c1ccc(Cl)cc1`, the Potency was inconclusive: 8.91 µM [activator, partial curve]. In the case of `c1ccc(-c2noc(-c3cccs3)n2)nc1`, the Potency is reported as inconclusive: 10.3 µM [inhibitor, partial curve, poor fit]. For `O=C(NC(=S)Nc1cccc(NC(=O)c2ccccc2Cl)c1)c1cccs1`, the “activity change, negative = inhibition” value was inactive: -1.57%. With `COC(=O)c1c(C)oc2ccc(N(C(=O)c3ccncc3)S(=O)(=O)c3cc(C)c(C)cc3C)cc12` the Potency was inconclusive: 7.08 µM [inhibitor, partial curve, poor fit]. In the case of `Nc1cccc(-c2nc3cc(S(=O)(=O)c4ccc5oc(-c6cccc(N)c6)nc5c4)ccc3o2)c1`, the Potency is reported as inconclusive: 14.6 µM [inhibitor, single point]. In the case of `CC1CCC(NC(=O)Nc2cccs2)CC1` (configuration not stated), the “activity change, negative = inhibition” value is reported as inactive: 28%. In the case of `O=C(CSc1nnc(COc2ccc(Cl)cc2)o1)Nc1ccccc1`, the Potency is reported as inconclusive: 10 µM [inhibitor, partial curve, poor fit]. With `CC1CCN(C(=O)Nc2ccc3nsnc3c2)CC1` the “activity change, negative = inhibition” value was inactive: 3.34%. For `COCC(C)OC(=O)c1c(N)n(CC(C)C)c2nc3ccccc3nc12` (configuration not stated), the Potency was inconclusive: 29.1 µM [inhibitor, single point]. For `CCOC(=O)c1c(C)[nH]c(C(=O)N2CCN(C(=O)OCC)CC2)c1C`, the “activity change, negative = inhibition” value was inactive: 5.59% [at 46.1 µM]. In the case of `O=C(Nc1ccccc1)Nc1ccc2ocnc2c1`, the “activity change, negative = inhibition” value is reported as inactive: -9.69% [at 46.1 µM]. In the case of `COc1cc(C(=O)NCc2ccc3c(c2)cc(C)n3C)cc(OC)c1OC`, the Potency is reported as inconclusive: 35.5 µM [inhibitor, single point]. With `Cc1ccc(-c2nnc(N3CCCCC3)c3ccccc23)cc1S(=O)(=O)N1CCN(C)CC1` the Potency was inconclusive: 0.112 µM [activator, full curve, poor fit]. In the case of `COc1ccc(C(CNC(=O)CN2C(=O)NC3(CC(C)CC(C)(C)C3)C2=O)N2CCOCC2)cc1` (configuration not stated), the Potency is reported as inconclusive: 1.16 µM [inhibitor, single point]. In the case of `Cc1ccccc1-c1nnc(CN2CCN(c3cc(Cl)ccc3C)CC2)o1`, the “activity change, negative = inhibition” value is reported as inactive: -22.7% [at 46.1 µM]. In the case of `CN1CCN(C(=O)C2CCN(S(=O)(=O)c3ccc4c(c3)oc(=O)n4C)CC2)CC1`, the “activity change, negative = inhibition” value is reported as inactive: 0.0063%. For `O=C(CNC(=O)c1ccco1)OCc1ccc(C(=O)c2ccccc2)cc1`, the Potency was inconclusive: 3.16 µM [inhibitor, single point]. For `Cc1ccc(OCC(=O)N/N=C\c2ccc(C)o2)c(C)c1`, the “activity change, negative = inhibition” value was inactive: 14.6% [at 46.1 µM]. In the case of `CC1CCCN(CCOCCOc2ccc(Cl)cc2Br)C1` (configuration not stated), the Potency is reported as active: 4.61 µM. With `N#C/C(=C\c1cn(CCOc2ccccc2)c2ccccc12)C(=O)NCc1ccco1` the “activity change, negative = inhibition” value was inactive: -38.5%. For `CCn1cnc2c(cnn2-c2ccccc2)c1=O`, the “activity change, negative = inhibition” value was inactive: 15.7%. With `COc1ccc2c(C=O)c[nH]c2c1` the “activity change, negative = inhibition” value was inactive: 0.306%. In the case of `COc1ccc(N2C(=O)C3C(C2=O)C(C(=O)c2ccc(Cl)cc2)N2CCCC32)cc1` (configuration not stated), the Potency is reported as inconclusive: 0.562 µM [inhibitor, full curve, poor fit]. For `COC(/C(=N/O)c1ccc(Cl)cc1)c1ccccc1` (configuration not stated), the Potency was inconclusive: 11.2 µM [inhibitor, partial curve, poor fit].
